# PubChem BioAssay AID652243 | Drosophila RNAi Screening Center | 2013
# Aim: 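Knock-downs that decrease or increase androgen receptor reporter signal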 (primary screen)
# Cell system: Drosophila S2R+ cells
# Reagent: long dsRNA against Drosophila genes
# Timing: 72 h (48 h, then 24 h hormone)
# Challenge: synthetic androgen R1881 at 10 nM for 24 h
# Read-out: 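Per-well raw luminescence of the androgen-driven firefly reporter and of the Renilla control, two replicates each, without normalisation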
# Direction: firefly reporter light: higher = more light from androgen-responsive reporter; Renilla control light: higher = more constitutive control signal (cell number, transfection)
# Active means: 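Across duplicate plates, a knock-down whose log firefly/Renilla ratio shifted a set fold down or up from the GFP/LacZ control mean was a hit; the downward cut appears as both 1.5 and 3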
# Calls: active = hit: reporter lowered or raised; inactive = no hit
# In all, the deposit lists about 24,000 reagents; shown is an unselected part of those that have a named target and a result. Of all reagents, 246 (1%) were called active. 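Plates not normalised; calls are printed but the firefly/Renilla ratio behind them is not deposited; fold cut for lowering reported inconsistently.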 Raw values vary from plate to plate and are shown uncorrected. Names joined by + are all predicted targets of the reagent. The record does not give: the amount of reagent.
The first 7 entries as a preview:
Gene,DRSC id,"firefly reporter light, replicate 1","firefly reporter light, replicate 2","Renilla control light, replicate 1","Renilla control light, replicate 2",outcome
CG42826,DRSC10682,1.94e5,1.26e5,1.78e6,1.66e6,inactive
eca,DRSC22290,1.12e6,1.21e6,9.12e5,1.05e6,inactive
CG34342,DRSC09756,1.92e5,1.38e5,2.59e6,2.06e6,inactive
CG34342,DRSC22515,4.13e5,7.77e5,4.14e5,6.53e5,inactive
CG34342,DRSC24023,8.96e5,9.69e5,9.66e5,9.94e5,inactive
Usp2,DRSC20590,9.74e5,6.86e5,1.33e6,1.21e6,inactive
Usp2,DRSC20632,16224,15779,1.77e5,2.15e5,inactive

Main list, repeating the preview:
Gene,DRSC id,"firefly reporter light, replicate 1","firefly reporter light, replicate 2","Renilla control light, replicate 1","Renilla control light, replicate 2",outcome
CG42826,DRSC10682,1.94e5,1.26e5,1.78e6,1.66e6,inactive
eca,DRSC22290,1.12e6,1.21e6,9.12e5,1.05e6,inactive
CG34342,DRSC09756,1.92e5,1.38e5,2.59e6,2.06e6,inactive
CG34342,DRSC22515,4.13e5,7.77e5,4.14e5,6.53e5,inactive
CG34342,DRSC24023,8.96e5,9.69e5,9.66e5,9.94e5,inactive
Usp2,DRSC20590,9.74e5,6.86e5,1.33e6,1.21e6,inactive
Usp2,DRSC20632,16224,15779,1.77e5,2.15e5,inactive
Usp2,DRSC20633,1.14e5,72026,3.68e5,1.73e5,inactive
Usp2,DRSC27066,4.59e5,3.11e5,1.08e6,6.37e5,inactive
CG32121,DRSC09265,90148,1.35e5,2.02e5,1.66e5,inactive
PyK,DRSC16806,2.42e5,2.13e5,3.49e6,3.35e6,inactive
PyK,DRSC27033,4.65e5,2.74e5,6.10e5,2.85e5,inactive
CG15021,DRSC08475,1.31e5,1.64e5,5.58e5,7.96e5,inactive
CG15021,DRSC25139,5.81e5,5.44e5,6.43e5,6.68e5,inactive
RtcB,DRSC03280,2.06e5,1.88e5,2.63e6,2.42e6,inactive
CR41509 + Clbn + CR41507 + 1 more,DRSC38658,9.24e5,8.55e5,1.97e6,2.34e6,inactive
CG13332,DRSC06367,1.36e5,1.40e5,2.76e6,2.76e6,inactive
CG33958,DRSC06472,74479,70208,1.27e6,1.27e6,inactive
CG33958,DRSC06944,1.08e5,1.11e5,1.61e6,1.61e6,inactive
CG33958,DRSC29635,2.24e5,3.17e5,7.71e5,7.71e5,inactive
CG18473,DRSC16381,68084,84092,1.72e6,1.55e6,inactive
Charon,DRSC00679,9.06e5,7.16e5,1.73e6,1.15e6,inactive
CCHa2,DRSC14835,8.35e5,9.73e5,2.70e6,2.32e6,inactive
CG31244,DRSC21589,4.39e5,3.46e5,2.25e6,2.57e6,inactive
CG8952,DRSC20133,95208,1.09e5,9.56e5,7.29e5,inactive
CG11815,DRSC08209,94670,1.07e5,9.18e5,1.29e6,inactive
CG11815,DRSC27752,4.64e5,2.87e5,8.72e5,6.63e5,inactive
gammaTub23C,DRSC00820,9.14e5,8.33e5,2.25e6,1.59e6,inactive
gammaTub23C,DRSC27651,6.46e5,5.12e5,8.38e5,6.59e5,inactive
gammaTub23C,DRSC38953,6.00e5,5.87e5,1.11e6,1.20e6,inactive
hog,DRSC19057,1.13e6,3.99e5,9.53e5,4.84e5,inactive
hog,DRSC26603,4.02e5,3.69e5,6.85e5,6.53e5,inactive
GstZ2,DRSC16479,43264,1.11e5,3.76e5,7.09e5,inactive
hng1,DRSC04555,8.14e5,6.58e5,2.04e6,2.09e6,inactive
Nup188,DRSC21830,9.04e5,8.53e5,3.75e6,4.40e6,inactive
Nup188,DRSC29937,4.18e5,3.38e5,9.11e5,9.63e5,inactive
Ogg1,DRSC17738,74533,1.20e5,6.54e5,5.92e5,inactive
Cht6,DRSC18001,5.14e5,5.51e5,3.07e6,3.25e6,inactive
Cht6,DRSC18253,3.69e5,3.68e5,3.43e6,2.92e6,inactive
Cht6,DRSC23211,8.77e5,7.41e5,1.40e6,1.32e6,inactive
Cht6,DRSC28095,5.58e5,6.17e5,2.40e6,1.99e6,inactive
Vha68-2,DRSC02721,3.08e5,2.46e5,2.03e6,1.83e6,inactive
Vha68-2,DRSC28637,3.80e5,4.27e5,1.14e6,1.16e6,inactive
CR43999 (retired record),DRSC14605,2.19e5,2.42e5,3.18e6,3.27e6,inactive
Trf4-1,DRSC17775,3.47e5,3.53e5,3.36e6,4.41e6,inactive
Rpn5,DRSC12367,31006,49204,2.26e5,2.00e5,inactive
Rpn5,DRSC28279,3.89e5,6.56e5,8.11e5,1.25e6,inactive
CG14861,DRSC14984,1.37e5,1.32e5,2.12e6,2.09e6,inactive
CG32189,DRSC09511,1.47e5,43005,2.30e5,1.45e5,inactive
CG32189,DRSC26756,2.85e5,3.32e5,5.07e5,6.06e5,inactive
Peritrophin-15a,DRSC02636,2.10e5,2.84e5,2.42e6,2.22e6,inactive
Peritrophin-15a,DRSC29171,5.73e5,4.86e5,1.44e6,1.46e6,inactive
Ir94g,DRSC15231,1.32e5,1.54e5,2.20e6,2.89e6,inactive
Ir94g,DRSC27794,1.58e5,2.31e5,4.62e5,7.04e5,inactive
Trmt112,DRSC11685,3.72e5,3.44e5,3.50e6,3.58e6,inactive
Prp19,DRSC07434,74689,72210,1.31e6,1.85e6,inactive
Prp19,DRSC23905,3.31e5,2.24e5,5.34e5,4.44e5,inactive
Mipp1,DRSC11223,44550,46072,3.58e5,3.90e5,inactive
Mipp1,DRSC36771,,,,,inactive
Mipp1,DRSC36772,,,,,inactive
